Experimental data as given in publication PMC11199634.

Sequences of proteins named here, by UniProt entry; tags and fusion partners are left off.
UniProt Q9NYF8: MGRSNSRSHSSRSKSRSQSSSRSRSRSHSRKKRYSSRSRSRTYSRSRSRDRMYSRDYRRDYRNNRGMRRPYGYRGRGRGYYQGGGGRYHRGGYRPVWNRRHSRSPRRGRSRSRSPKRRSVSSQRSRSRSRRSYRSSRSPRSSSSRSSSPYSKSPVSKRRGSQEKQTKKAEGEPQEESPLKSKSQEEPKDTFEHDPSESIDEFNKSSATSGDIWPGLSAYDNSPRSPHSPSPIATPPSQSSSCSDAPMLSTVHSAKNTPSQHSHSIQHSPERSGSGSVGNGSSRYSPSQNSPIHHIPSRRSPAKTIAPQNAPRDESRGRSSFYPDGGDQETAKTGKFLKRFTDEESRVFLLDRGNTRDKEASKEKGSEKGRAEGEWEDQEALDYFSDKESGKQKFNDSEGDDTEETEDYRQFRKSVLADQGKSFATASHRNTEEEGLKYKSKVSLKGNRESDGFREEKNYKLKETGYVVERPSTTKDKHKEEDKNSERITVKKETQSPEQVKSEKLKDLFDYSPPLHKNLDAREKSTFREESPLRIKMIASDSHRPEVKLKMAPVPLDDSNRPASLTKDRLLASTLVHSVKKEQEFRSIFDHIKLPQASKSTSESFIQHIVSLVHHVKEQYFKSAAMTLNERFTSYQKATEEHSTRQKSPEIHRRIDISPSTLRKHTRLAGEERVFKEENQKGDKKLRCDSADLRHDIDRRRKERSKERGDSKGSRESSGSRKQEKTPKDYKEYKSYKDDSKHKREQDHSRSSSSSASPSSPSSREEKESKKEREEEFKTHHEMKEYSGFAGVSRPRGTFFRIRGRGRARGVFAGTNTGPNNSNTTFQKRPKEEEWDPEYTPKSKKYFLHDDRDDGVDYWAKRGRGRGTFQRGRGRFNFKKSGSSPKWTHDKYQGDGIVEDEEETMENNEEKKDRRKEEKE

Key:
EGFP-SDS22-KR7A (human) = EGFP-SDS22-KR7A (human) (UniProt Q15435); assay: co-IP; ectopically expressed SDS22-WT, SDS22-KR7A or a PP1–SDS22 fusion, pulldown (Supplementary Fig. 4h); tag and cells not given
Strep-I3-DE4R (human) = Strep-I3-DE4R (human) (UniProt O60927); assay: co-IP; Strep-traps of transiently expressed Strep-I3 variants with EGFP-SDS22 variants; immunoblot
EGFP-SDS22-W302* (human) = target: T1, EGFP-SDS22-W302* (human) (UniProt Q15435); assay: co-IP; EGFP-trap (anti-EGFP nanobodies on agarose, 2 h, 4 °C) of transiently expressed EGFP fusions from HEK293T lysates (20 mM Tris pH 7.9, 0.3 M NaCl, 0.5% Triton X-100); endogenous partners by immunoblot
T1 sequence: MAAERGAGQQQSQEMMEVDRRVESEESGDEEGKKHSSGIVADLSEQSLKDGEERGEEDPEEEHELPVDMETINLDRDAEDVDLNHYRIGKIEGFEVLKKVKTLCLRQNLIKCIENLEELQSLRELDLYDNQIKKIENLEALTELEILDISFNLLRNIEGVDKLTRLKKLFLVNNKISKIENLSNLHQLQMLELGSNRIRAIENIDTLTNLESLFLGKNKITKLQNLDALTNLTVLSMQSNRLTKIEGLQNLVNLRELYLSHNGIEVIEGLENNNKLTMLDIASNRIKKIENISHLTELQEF

EGFP-SDS22-WT (human) = target: T2, EGFP-SDS22-WT (human) (UniProt Q15435); assay: as above
T2 sequence: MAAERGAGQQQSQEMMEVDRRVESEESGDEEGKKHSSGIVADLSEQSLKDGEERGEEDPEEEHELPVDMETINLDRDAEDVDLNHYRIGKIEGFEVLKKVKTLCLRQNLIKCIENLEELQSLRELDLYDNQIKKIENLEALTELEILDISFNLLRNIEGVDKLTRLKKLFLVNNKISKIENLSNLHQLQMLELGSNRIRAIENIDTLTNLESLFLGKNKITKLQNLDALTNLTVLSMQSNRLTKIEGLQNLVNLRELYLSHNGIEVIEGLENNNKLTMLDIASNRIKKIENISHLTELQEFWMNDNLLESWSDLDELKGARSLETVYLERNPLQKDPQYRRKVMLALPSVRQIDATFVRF

EGFP-I3-(1–70) (human) = target: T3, EGFP-I3-(1–70) (human) (UniProt O60927); assay: as above
T3 sequence: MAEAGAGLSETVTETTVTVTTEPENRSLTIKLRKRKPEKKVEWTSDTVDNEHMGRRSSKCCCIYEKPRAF

EGFP-I3-WT (human) = target: T4, EGFP-I3-WT (human) (UniProt O60927); assay: as above
T4 sequence: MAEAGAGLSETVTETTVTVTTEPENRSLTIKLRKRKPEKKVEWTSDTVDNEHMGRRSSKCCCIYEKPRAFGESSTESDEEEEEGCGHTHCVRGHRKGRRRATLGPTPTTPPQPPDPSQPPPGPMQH

EGFP-I3-(1–84) (human) = target: T5, EGFP-I3-(1–84) (human) (UniProt O60927); assay: as above
T5 sequence: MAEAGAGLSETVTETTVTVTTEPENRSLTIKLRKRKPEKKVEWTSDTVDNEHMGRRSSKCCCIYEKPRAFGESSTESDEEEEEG

binding (EGFP-SDS22-KR7A (human)): no binding
Substance: BCLAF1 (endogenous, HEK293T) (from UniProt Q9NYF8 1-920)

binding (Strep-I3-DE4R (human)): binds
Substance: EGFP-SDS22-KR7E (from UniProt Q15435)

binding (EGFP-SDS22-W302* (human)): no binding
binding (EGFP-SDS22-WT (human)): binds
binding (EGFP-I3-(1–70) (human)): binds
binding (EGFP-I3-WT (human)): binds
binding (EGFP-I3-(1–84) (human)): binds
Substance: PP1 (endogenous, HEK293T) (human (endogenous in HEK293T)) (enzyme)

Results are given in words; binding and its absence hold for the method and conditions named. In cells and extracts the contact can be indirect. For some of these results: Binding can be weak; no strength is given. For some of these results: Sequences can lack the tags named with a protein. One block for each substance: values may come before it.
